# Experimental data taken from PubChem BioAssay AID2685 (National Center for Advancing Translational Sciences (NCATS), 2010).
# This is one part of the list. The main result of the screen is listed elsewhere. These columns were measured beside it and carry no call. The list favours compounds with an active or inconclusive main result. Potencies come from curve fits of mixed quality, noted in brackets.
# Test: qHTS Assay for Lipid Storage Modulators in Drosophila S3 Cells;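 for cell number change: cells counted by Cell Tracker Red CMTPX staining in the red channel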
# Settings: BODIPY lipid droplet fluorescence, 18-24 h; for cell number change: measured here: cell count max response, cells fed with added oleic acid
# How it was run: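 Drosophila S3 cells loaded with oleic acid (400 uM, as added) and compounds at several concentrations; lipid droplets imaged by 488-nm laser-scanning cytometry, 500–530 nm intensity and object ratio to cell channel. Percent activity normalized to 20 uM Triacsin C.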
# [1] = measured here: cell number channel AC50, cells fed with added oleic acid
# [2] = measured here: lipid fluorescence (Fed channel) AC50, cells fed with added oleic acid
smiles,measurement,setting,value
Cc1ccc(N2CCOCC2)c2c1C(=O)c1ccccc1C2=O,cell number change,,-84.9%
same,AC50,[1],"23.1 µM [falling, partial curve]"
same,AC50,[2],"11.6 µM [falling, single point]"
Cc1oc(-c2cccs2)nc1CN1CCN(C(C)C)C(CCO)C1 (centres undefined),cell number change,,-8.5%
same,AC50,[2],"29.1 µM [falling, single point]"
O=C(NS(=O)(=O)N1CCCC1)C1=C(N2CCCC2)COC1=O,cell number change,,-6.88%
same,AC50,[2],"0.13 µM [falling, full curve, poor fit]"
CC(=O)C1=C(c2ccccc2)NC(=O)NC1c1ccc2c(c1)OCO2 (centres undefined),cell number change,,-6.45%
NC(=O)CSc1nc2ccccc2n1Cc1ccccc1,cell number change,,-25.9%
same,AC50,[1],"0.00461 µM [rising, full curve, poor fit]"
Cc1cc(C(=O)COC(=O)C2=NNC(=O)CC2)c(C)n1-c1ccc(OC(F)F)cc1,cell number change,,-11.6%
CN(C)CCCNC(=O)c1ccc(-c2nc(-c3ccc(Cl)cc3)cs2)cc1,cell number change,,-42.1%
same,AC50,[1],"20.6 µM [falling, partial curve]"
same,AC50,[2],"25.9 µM [falling, partial curve]"
CCn1cc(Br)c(C(=O)Nc2ccc(OC)cc2)n1,AC50,[2],"2.06 µM [rising, full curve]"
Cc1ccc(NC(=O)c2ccc(NCc3ccc(F)cc3)nc2)cc1,cell number change,,-11.9%
same,AC50,[1],"0.116 µM [falling, full curve, poor fit]"
CCc1ccc(NC(=O)c2cnc(SC)nc2C)cc1,cell number change,,18%
same,AC50,[2],"29.1 µM [rising, single point]"
O=S(=O)(c1cnc(Cl)c(Cl)c1)N1CCCc2ccccc21,cell number change,,7.91%
same,AC50,[2],"20.6 µM [rising, partial curve]"
NS(=O)(=O)c1ccc(CCNC(=O)c2cc([N+](=O)[O-])ccc2N2CCCCC2)cc1,cell number change,,-4.17%
same,AC50,[2],"29.1 µM [rising, single point]"
O=C(COC(=O)CCS(=O)(=O)c1ccc(F)cc1)NC1CCCCC1,cell number change,,-67.4%
same,AC50,[1],"1.46 µM [falling, full curve]"
same,AC50,[2],"1.3 µM [falling, full curve]"
Cc1ccc(NC(=O)Nn2cnnc2)cc1Cl,cell number change,,10.7%
same,AC50,[2],"32.6 µM [rising, single point]"
CC(/C=N/n1c(-c2ccco2)n[nH]c1=S)=C\c1ccccc1,cell number change,,-43.1%
same,AC50,[1],"23.1 µM [falling, single point]"
CCOC(=O)N1CCN(CC(=O)Nc2ccc(C)cc2)CC1,cell number change,,-13.6%
same,AC50,[2],"20.6 µM [rising, single point]"
Cc1ccc2nc(NC(=O)C3CCN(C(=O)c4ccc(F)cc4)CC3)sc2c1,cell number change,,20.2%
same,AC50,[2],"1.03 µM [rising, partial curve]"

# Part of the list above, as tab-separated lines:
smiles	measurement	setting	value
O=S(=O)(c1cnc(Cl)c(Cl)c1)N1CCCc2ccccc21	AC50	[2]	20.6 µM [rising, partial curve]
NS(=O)(=O)c1ccc(CCNC(=O)c2cc([N+](=O)[O-])ccc2N2CCCCC2)cc1	cell number change		-4.17%
